Here are results for two molecules from patent US10344077.

No constants are given. Whether binding was seen depends on the method and setting.

Some targets named below: RNP (ribonucleoprotein); SSA; Sm (Smith antigen).
What all share (assay): AtheNA

B1: CH557 (antibody, V domains shown)
VH: QVRLAQYGGGVKRLGATMTLSCVASGYTFNDYYIHWVRQAPGQGFELLGYIDPANGRPDYAGALRERLSFYRDKSMETLYMDLRSLRYDDTAMYYCVRNVGTAGSLLHYDHWGSGSPVIVSS
VL: EIVLTQSPATLSASPGERVTLTCRASRSVRNNVAWYQHKGGQSPRLLIYDASTRAAGVPARFSGSASGTEFTLAISNLESEDFTVYFCLQYNNWWTFGQGTRVDIK
Take B1: the binding result with RNP (ribonucleoprotein), with SSA and in the assay with Sm (Smith antigen) was “no binding (tested: 6.25 ug/ml to 50 ug/ml)” throughout.

B2: DH542 (antibody, V domains shown)
VH: QVQLVQSGAQMKNPGASVKVSCAPSGYTFTDFYIHWLRQAPGQGLQWMGWMNPQTGRTNTARNFQGRVTMTRDTSIGTAYMELRSLTSDDTAIYYCTTGGWISLYYDSSYYPNFDHWGQGTLLTVSS
VL: TSLLTQPASVSGSPGQSITISCTGTKYDVGSHDLVSWYQQYPGKVPKYMIYEVNKRPSGVSNRFSGSKSGNTASLTISGLRAEDEADYYCCSFGGSATVVCGGGTKVTVL
With B2, the binding result with RNP (ribonucleoprotein), with SSA and in the assay with Sm (Smith antigen) was “no binding (tested: Readings <100 are considered negative)” each time.
